Data: PubChem BioAssay (NCATS)
The inconclusive results got no clear call from the source; some entries with a clear call stand among them for comparison. Potencies beside an inconclusive call are fits to weak or partial responses and may not hold up. The source made the active and inactive calls. The calls were made as follows: active = clear falling dose curves in both reporters; inconclusive = both reporters move, but less clearly or upward; inactive = either reporter flat; the % is the FLuc reporter signal.

assay: Cell-based coincidence reporter assay to measure PMP22 gene transcription in S16 Pmp22-F2sN cells - Confirmatory screen (AID 1508646); details: S16 Schwann cells Pmp22-F2sN, dual luciferase, 24 h; series mostly up to 57.5 µM
In short: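 Coincidence reporter read as sequential FLuc then NLuc luminescence (Nano-Glo Dual-Luciferase, 10 min each). Engineered S16 Pmp22-F2sN Schwann cells, 500-1,000 per well in DMEM/10% FBS, were exposed to compounds for 24 h, 37C.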
Potency is read from the fitted curve at half-maximal effect.

**Q.** With `COc1cc(NC(=O)N2CCC(CN3CCOCC3)CC2)cc(OC)c1OC` as the molecule, how does the Potency read?
**A.** inactive

**Q.** Which Potency does the source give for `Cn1nnnc1SCCCNCc1ccccc1OCc1ccccc1Cl` here?
**A.** inconclusive: 24.3 µM [phenotype inactive, partial curve]

**Q.** For `COc1cc2c(=O)c(C(=O)c3ccc(C)c(C)c3)cn(Cc3ccccc3F)c2cc1OC`, which Potency is on record?
**A.** inconclusive: 24.3 µM [phenotype inactive, partial curve]

**Q.** Which Potency does the source give for `CSc1nc2sc3c(c2c(=O)n1-c1ccc(C)cc1)CCCC3` here?
**A.** inconclusive: 21.7 µM [phenotype inactive, partial curve]

**Q.** With `CCN1C(=O)c2ccccc2S(=O)c2ccc(C(=O)N3CCN(c4cccc(Cl)c4)CC3)cc21` (stereo unspecified) as the molecule, how does the Potency read?
**A.** inconclusive: 24.3 µM [phenotype inactive, partial curve, poor fit]

**Q.** Which Potency does the source give for `COc1cc(NS(=O)(=O)c2ccc3[nH]c4c(c3c2)CCCC4)cc(OC)c1OC` here?
**A.** inconclusive: 24.3 µM [phenotype inactive, partial curve, poor fit]
